Positions count from the first letter of the chain named. These are yes or no findings as the source states them, for the method shown. For some assays here: Binding can be weak; no strength is given. Values belong to the binder of their own block, whether it stands above or below them.
Experiments:
[1] = molecular target: recombinant cynomolgus TREM2 ECD (cynomolgus); experiment: SPR (Biacore), antibody captured via anti-human Fab, recombinant cynomolgus TREM2 injected
[2] = molecular target: cynomolgus soluble TREM2 (sTREM2) (cynomolgus); experiment: MSD assay: sTREM2 captured from healthy cynomolgus CSF, sulfo-tagged antibody titrated
[3] = molecular target: recombinant cynomolgus TREM2 ECD (cynomolgus); experiment: SPR (Biacore)

- binding [1]: no binding
B1: CL0020141 (antibody, V domains shown)
VH: EVTLVESGGGLVQPGGSLRLSCATSGFTFTDYYMSWVRQPPGKALEWLGFIRDKANGYTTDYSASVKGRFTISRDNSQNILYLQMNTLRAEDSATYYCSRLLRAQGFAYWGQGTLVTVSA
VL: DIVMSQSPSSLGVSIGEKVIMSCTSGQSLLYSNNQKNYLAWYQQKPGQSPKLLIYWASTRESGVPDRFTGSGSGTDFTLTINSVKAEDLAVYYCQQYYRNPFTFGSGTKLEIK

- binding [2]: binds
- binding [3]: binds
B2: CL0020188-4 (antibody, V domains shown)
VH: EVQLVESGGGLVQPGGSLRLSCAGSGFTFTDFYMSWVRQAPGKGPEWLSVIRNKANGYTAGYNPSVKGRFTISRDNSKNTLYLQMNSLRAEDTAVYYCARLTYGFDYWGQGTLVTVSS
VL: DIVMTQTPLSLPVTPGEPASISCQSSKSLLHSTGKTYLNWYLQKPGQSPQLLIYWMSTRASGVPDRFSGSGSGTDFTLKISRVEAEDVGVYYCQQFLEYPFTFGQGTKVEIK

- binding [2]: binds
- binding [3]: binds
B3: CL0020188-7 (antibody, V domains shown)
VH: B2 VH with G24A, P45L, L48V, G57A
VL: B2 VL
